# About 3,700 (1.2%) of roughly 300,000 compounds were called active. The shares of active, inactive and inconclusive entries below differ from those in the screen. Calls come from the whole dose curve; tested in HEK293 cells. A potency beside an inconclusive call is a rough fit, not a confirmed value.
# Experiment: qHTS for Inhibitors of binding or entry into cells for Lassa Virus; note: nearly all actives have a fitted effect of over 50% in size
# Details: Lassa virus pseudotype entry inhibition, cell reporter; activity change, negative = inhibition: at 37.9 µM (top of the series) unless noted
# % is set by controls: 0 for no effect and ±100 for the full control effect; potency is the fitted concentration of half-maximal effect.
SMILES,"activity change, negative = inhibition",Potency
COc1cc(OC)cc(C(=O)Nc2nc(CC(=O)NCCc3ccccc3)cs2)c1,inactive: -6.98%,
Cc1ccc(S(=O)(=O)c2nnn3c2nc(Nc2ccc(C(C)C)cc2)c2sccc23)cc1C,,"inconclusive: 6.31 µM [inhibitor, single point]"
O=C(CCc1nnc(-c2ccccc2)o1)NCc1cc(F)ccc1F,inactive: 3.78% [at 46.1 µM],
COC(=O)C1=C(C)[C@H](O)[C@@H](C)[C@](C)(c2cc(OC)c(C)c(OC)c2COc2ccccc2)O1,,"inconclusive: 0.0067 µM [inhibitor, full curve, poor fit]"
CN(c1ccccc1)S(=O)(=O)c1cccc(NC(=O)CC(C)(C)C)c1,,"inconclusive: 9.2 µM [inhibitor, partial curve]"
COC(=O)NC(=S)Nc1ccc(Oc2ccc(Cl)cc2Cl)c(Cl)c1,,"inconclusive: 25.1 µM [inhibitor, single point]"
Cc1ccc(C(=O)N(CCc2ccccc2)Cc2ccccc2)cc1S(=O)(=O)N1CCCCC1,,"inconclusive: 12.6 µM [inhibitor, partial curve, poor fit]"
NC(=O)C1=CN(Cc2ccc(Cl)cc2)CCC1C(F)(F)F (stereo not given),,"inconclusive: 3.16 µM [inhibitor, partial curve, poor fit]"
CC(C)(C)C(=O)N1CCN(c2ccc(NC(=O)c3ccc4c(c3)OCCO4)cc2)CC1,,"inconclusive: 11.2 µM [inhibitor, partial curve, poor fit]"
CCN(CC)S(=O)(=O)c1ccc(OC)c(NC(=O)CCS(=O)(=O)Cc2ccccc2)c1,,"inconclusive: 0.794 µM [inhibitor, single point]"
Cc1ccc(C(=O)Nc2ccc(C(F)(F)F)n(C)c2=O)cc1,,"inconclusive: 10 µM [inhibitor, partial curve, poor fit]"
COc1cc2c(cc1OC)CN(C(=O)C1CCN(S(=O)(=O)c3ccccc3F)CC1)CC2,inactive: -12.5% [at 46.1 µM],
COc1ccc(-n2c(SCC(=O)Nc3ccc(C)cc3)nc(O)c(Cc3ccccc3)c2=O)cc1,,"inconclusive: 1.26 µM [activator, partial curve, poor fit]"
Cc1ccc([N+](=O)[O-])cc1NC(=O)c1ccc2c(c1)OCO2,inactive: -5.5%,
Cc1cc(O)c(C(c2cccc(Cl)c2)N2CCN(c3ccccc3)CC2)c(=O)n1Cc1ccco1 (stereo not given),,"inconclusive: 5.62 µM [activator, full curve, poor fit]"
Cc1ccccc1Nc1oc(-c2ccccc2)nc1C(C)(C)C,,"inconclusive: 0.841 µM [activator, full curve, poor fit]"
CCN1/C(=C/c2ccc3ccc(C)cc3[n+]2CC)Sc2ccccc21,,"inconclusive: 12.6 µM [inhibitor, single point]"
Cc1sc2ncn(CC(=O)NCCCC(=O)N3CCN(c4ccccc4F)CC3)c(=O)c2c1C,,"inconclusive: 1.26 µM [inhibitor, full curve, poor fit]"
Cc1ccc(/C=N/NC(=O)C[n+]2ccccc2)o1,inactive: -5.98%,
CCOC(=O)c1c(C)nn(-c2ccc(NC(=O)c3cccs3)cc2)c1C,,"inconclusive: 22.4 µM [inhibitor, partial curve, poor fit]"
CNC(=O)CSc1cnc2ccccc2n1,inactive: 3.49%,
Cc1ccc(CN2CC34C=CC(O3)C(C(=O)NCc3ccco3)C4C2=O)cc1 (stereo not given),inactive: 0.778%,

SMILES,"activity change, negative = inhibition",Potency
CCc1ccc(-n2c(C)nc3cc(C(=O)NCCc4ccccc4)ccc32)cc1,,"inconclusive: 3.16 µM [inhibitor, partial curve, poor fit]"
CN(C)/C=C/c1onc(-c2c(Cl)cccc2Cl)c1C#N,,"inconclusive: 35.5 µM [inhibitor, partial curve, poor fit]"
CC1c2ccsc2CCN1C(=O)NC(=O)c1ccc(Cl)cc1 (stereo not given),,"inconclusive: 35.5 µM [inhibitor, single point]"
C/C(=N\NC(=O)CC#N)C1COc2ccccc2O1 (stereo not given),,"inconclusive: 6.31 µM [inhibitor, single point]"
CN(C)c1ccc(CN(CC2CCCO2)C(=O)COc2ccc(Cl)cc2)cc1 (stereo not given),,"inconclusive: 1.26 µM [inhibitor, full curve, poor fit]"
COc1ccccc1NS(=O)(=O)c1cccc(NC(=O)c2ccc3ccccc3n2)c1,,"inconclusive: 35.5 µM [inhibitor, single point]"
O=C(c1ccncc1)N1N=C(c2ccc(Cl)cc2)CC1c1ccccc1O (stereo not given),,"inconclusive: 35.5 µM [inhibitor, single point]"
CCOC(=O)N1CCN(c2nnc(-c3ccccc3)c3ccccc23)CC1,,"inconclusive: 12.6 µM [inhibitor, single point]"
CSc1nnc(-c2cccs2)n1-c1ccccc1,,"inconclusive: 0.259 µM [activator, full curve, poor fit]"
COc1cc(C(C)=O)ccc1OCC(O)CN1CCN(c2ccc(F)cc2)CC1 (stereo not given),,"inconclusive: 2.51 µM [inhibitor, partial curve, poor fit]"
O=C(Nc1sc2c(c1C(=O)c1ccccc1)CCCC2)c1cccnc1,inactive: 6.98%,
COc1ccccc1N1CCN(C(=O)COc2cc(C)ccc2C)CC1,,"inconclusive: 5.62 µM [activator, single point]"
Cc1c(/C=N/O)c2ccccn2c1C(=O)c1ccc(F)cc1,,"inconclusive: 0.891 µM [inhibitor, partial curve, poor fit]"
COc1cc(CN(CCN(C)C)Cc2ccccc2)ccc1OCc1ccccc1,,"inconclusive: 35.5 µM [inhibitor, single point]"
O=C(CN1C(=O)CC(c2ccco2)Sc2ccccc21)NCC1CCCO1 (stereo not given),inactive: -0.0121%,
COC(=O)CNC(c1ccccc1)c1cc(C)ccc1NC(=O)CNC(=O)OCc1ccccc1 (stereo not given),,"inconclusive: 29.1 µM [inhibitor, single point]"
C=CCn1c(Cc2c(C)[nH]c3ccccc23)nnc1SCC(=O)NCc1ccc(F)cc1,inactive: -25.9%,
CCOC(=O)c1c(NC(NC(=O)C(C)C)C(Cl)(Cl)Cl)sc2c1CCC2 (stereo not given),,"inconclusive: 10.3 µM [inhibitor, single point]"
Cc1ccsc1C(=O)OCC(=O)NC1CC1,,"inconclusive: 2.82 µM [inhibitor, single point]"
CCOc1ccc(N2CC(c3nc4ccccc4n3CCCOc3ccc(OC)cc3)CC2=O)cc1 (stereo not given),,"inconclusive: 11.2 µM [inhibitor, partial curve, poor fit]"
O=C(c1ccccc1F)N(Cc1ccc(F)cc1)C1CCS(=O)(=O)C1 (stereo not given),inactive: 25.7%,
COCCNC(=O)CSc1nnc(-c2ccc(OC)c(OC)c2)c(-c2ccc(OC)c(OC)c2)n1,inactive: 2.18% [at 46.1 µM],

SMILES,"activity change, negative = inhibition",Potency
CC1CN(C(=O)COC(=O)Cc2c(Cl)cccc2Cl)CC(C)O1 (stereo not given),,"inconclusive: 3.55 µM [inhibitor, single point]"
O=c1[nH]c(/C=C/c2cccc(Br)c2)nc2ccccc12,,"inconclusive: 3.55 µM [inhibitor, single point]"
Cc1c(C(=O)NCCSCc2cccc(C(F)(F)F)c2)cnn1-c1ccc(Cl)cc1,,"inconclusive: 0.316 µM [inhibitor, full curve, poor fit]"
COc1cc(C(=O)Nc2cc(C(F)(F)F)ccc2Cl)cc(OC)c1OC,,"inconclusive: 1.12 µM [activator, single point]"
O=S(=O)(c1ccccc1)c1nc(-c2cccc(Cl)c2)oc1NCc1ccccc1,,"inconclusive: 2.24 µM [inhibitor, partial curve, poor fit]"
COc1ccccc1C(=O)C1CCCN(C(=O)CCC(=O)c2ccccc2)C1 (stereo not given),,"inconclusive: 10 µM [inhibitor, partial curve, poor fit]"
CCC(C)NC(=O)C1(N2C(=O)c3ccccc3C2=O)CCCC1 (stereo not given),inactive: 9.28%,
CN(Cc1ccco1)C(=O)c1c[nH]c2ccc(S(=O)(=O)Nc3ccc4c(c3)OCCO4)cc2c1=O,,"inconclusive: 5.17 µM [activator, partial curve, poor fit]"
COC(=O)c1cc(Cl)c(NC(=O)/C=C/c2ccc(Cl)cc2Cl)cc1OC,,"inconclusive: 12.6 µM [inhibitor, single point]"
CCC(C)NC(=O)N[C@@H](CCSC)C(=O)OC (stereo not given in full),inactive: -11%,
Cc1ccc(CSc2nc(=O)c3c(C)cc(C)nc3n2C2CC2)cc1,inactive: -11.3% [at 46.1 µM],
O=S1(=O)CC(O)c2cc(Br)ccc2N1Cc1cccc(F)c1 (stereo not given),,"inconclusive: 3.15 µM [activator, full curve, poor fit]"
c1ccc2nc(-c3nc4ccccc4o3)ccc2c1,,active: 2.31 µM
COc1cc(S(=O)(=O)N2CCN=C2c2ccccc2)ccc1F,,"inconclusive: 5.8 µM [inhibitor, full curve, poor fit]"
CCOC(=O)c1cc(-c2ccc(F)cc2)n(CCC(=O)Nc2ccccc2OC)c1C,inactive: -21.3% [at 46.1 µM],
COc1ccc(-c2cn[nH]c2-c2ccc(OCc3ccc(F)cc3)cc2O)cc1OC,,"inconclusive: 8.91 µM [inhibitor, partial curve]"
CC(C)(C)c1ccc(CN2C3=NCCCN3c3ccccc32)cc1,,"inconclusive: 6.51 µM [inhibitor, partial curve]"
COc1ccc(NC(=O)Cn2c(=O)n(-c3ccc(Cl)cc3)c(=O)c3c(C)c(C(=O)N(C)C)sc32)cc1Cl,inactive: 0.225% [at 46.1 µM],
CC(Sc1ncc(S(=O)(=O)c2ccc(C(C)C)cc2)c(N)n1)C(=O)Nc1ccccc1 (stereo not given),,"inconclusive: 10 µM [inhibitor, single point]"
O=C(N=C1N=C2C=CC(Br)=CN2Cc2ccccc21)c1ccc([N+](=O)[O-])cc1[N+](=O)[O-],inactive: 4.88%,
O=C(Nc1cc2c(cc1Br)OCCO2)c1ccco1,inactive: 29.8%,

# Taken from above.
# Potency, COc1ccc(-c2cn[nH]c2-c2ccc(OCc3ccc(F)cc3)cc2O)cc1OC is entered as inconclusive: 8.91 µM [inhibitor, partial curve]
# activity change, negative = inhibition, COc1ccc(NC(=O)Cn2c(=O)n(-c3ccc(Cl)cc3)c(=O)c3c(C)c(C(=O)N(C)C)sc32)cc1Cl is entered as inactive: 0.225% [at 46.1 µM]
# Potency, O=c1[nH]c(/C=C/c2cccc(Br)c2)nc2ccccc12 is entered as inconclusive: 3.55 µM [inhibitor, single point]
# Potency, COc1cc(C(=O)Nc2cc(C(F)(F)F)ccc2Cl)cc(OC)c1OC is entered as inconclusive: 1.12 µM [activator, single point]
# activity change, negative = inhibition, CCC(C)NC(=O)C1(N2C(=O)c3ccccc3C2=O)CCCC1 (stereo not given) is entered as inactive: 9.28%
# Potency, CC(Sc1ncc(S(=O)(=O)c2ccc(C(C)C)cc2)c(N)n1)C(=O)Nc1ccccc1 (stereo not given) is entered as inconclusive: 10 µM [inhibitor, single point]

# Reference: PubChem BioAssay AID540256 (National Center for Advancing Translational Sciences (NCATS), 2011)
